From publication doi:10.1101/056713 come the findings set out here.

Chains of the proteins cited; added tags and fusions are not shown.
UniProt Q9Z148: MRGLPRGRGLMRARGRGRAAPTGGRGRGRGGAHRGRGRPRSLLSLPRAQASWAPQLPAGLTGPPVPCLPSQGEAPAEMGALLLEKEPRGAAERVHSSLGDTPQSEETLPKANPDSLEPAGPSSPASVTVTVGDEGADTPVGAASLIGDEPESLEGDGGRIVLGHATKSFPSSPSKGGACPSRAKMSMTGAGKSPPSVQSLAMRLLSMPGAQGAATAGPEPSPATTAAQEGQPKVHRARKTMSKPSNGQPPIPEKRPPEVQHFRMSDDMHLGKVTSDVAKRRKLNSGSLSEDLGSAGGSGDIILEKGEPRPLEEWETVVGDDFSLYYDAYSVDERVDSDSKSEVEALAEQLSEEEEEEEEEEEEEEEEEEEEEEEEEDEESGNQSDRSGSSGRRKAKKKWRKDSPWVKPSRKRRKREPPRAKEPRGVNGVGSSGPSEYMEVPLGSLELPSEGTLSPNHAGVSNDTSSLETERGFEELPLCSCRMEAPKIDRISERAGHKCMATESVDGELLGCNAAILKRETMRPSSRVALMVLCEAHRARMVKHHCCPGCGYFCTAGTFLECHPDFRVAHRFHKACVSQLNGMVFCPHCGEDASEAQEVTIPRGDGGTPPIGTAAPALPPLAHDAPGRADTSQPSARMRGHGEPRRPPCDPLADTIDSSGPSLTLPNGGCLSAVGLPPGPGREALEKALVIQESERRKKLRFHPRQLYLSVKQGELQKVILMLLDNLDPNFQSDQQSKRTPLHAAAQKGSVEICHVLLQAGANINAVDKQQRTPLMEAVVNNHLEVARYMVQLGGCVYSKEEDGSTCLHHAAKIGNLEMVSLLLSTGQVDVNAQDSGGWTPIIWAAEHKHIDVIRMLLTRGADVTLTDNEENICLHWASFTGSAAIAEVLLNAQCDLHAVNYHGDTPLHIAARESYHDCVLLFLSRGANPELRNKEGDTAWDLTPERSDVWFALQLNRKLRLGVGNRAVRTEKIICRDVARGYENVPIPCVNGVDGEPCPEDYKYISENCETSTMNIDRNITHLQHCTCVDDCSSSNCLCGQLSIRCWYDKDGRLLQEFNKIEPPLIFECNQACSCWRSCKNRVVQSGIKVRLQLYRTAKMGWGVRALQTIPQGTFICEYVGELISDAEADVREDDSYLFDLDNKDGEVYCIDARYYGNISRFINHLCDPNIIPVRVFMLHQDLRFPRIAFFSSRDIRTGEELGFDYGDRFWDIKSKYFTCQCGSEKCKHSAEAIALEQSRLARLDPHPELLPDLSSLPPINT
UniProt Q96EQ9: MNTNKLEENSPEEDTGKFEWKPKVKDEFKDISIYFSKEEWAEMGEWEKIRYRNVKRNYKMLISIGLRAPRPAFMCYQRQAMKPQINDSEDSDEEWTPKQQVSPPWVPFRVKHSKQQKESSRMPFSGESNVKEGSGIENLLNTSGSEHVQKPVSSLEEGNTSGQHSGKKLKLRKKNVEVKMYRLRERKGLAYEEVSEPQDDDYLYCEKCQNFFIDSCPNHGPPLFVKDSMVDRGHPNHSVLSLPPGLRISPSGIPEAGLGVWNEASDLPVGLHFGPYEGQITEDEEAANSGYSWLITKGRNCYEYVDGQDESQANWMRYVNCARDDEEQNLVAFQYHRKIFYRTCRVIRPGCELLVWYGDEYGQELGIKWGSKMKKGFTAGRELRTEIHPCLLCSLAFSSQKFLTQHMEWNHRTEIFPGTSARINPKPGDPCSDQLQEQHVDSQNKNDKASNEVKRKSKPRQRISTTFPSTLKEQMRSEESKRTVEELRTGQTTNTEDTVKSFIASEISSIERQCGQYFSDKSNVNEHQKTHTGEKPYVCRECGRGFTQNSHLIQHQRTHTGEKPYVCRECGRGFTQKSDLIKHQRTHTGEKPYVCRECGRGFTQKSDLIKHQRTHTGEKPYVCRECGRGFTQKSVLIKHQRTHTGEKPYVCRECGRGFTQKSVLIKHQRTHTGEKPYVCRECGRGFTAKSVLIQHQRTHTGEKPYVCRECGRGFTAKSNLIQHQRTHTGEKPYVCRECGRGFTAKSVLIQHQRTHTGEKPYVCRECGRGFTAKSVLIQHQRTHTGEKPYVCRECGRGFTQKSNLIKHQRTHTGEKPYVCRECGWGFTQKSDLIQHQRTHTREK

Common to all, as to assay: co-IP
For assay [1], the target named is T1, CDYL, endogenous in mouse testis (mouse (endogenous in testis)) (UniProt Q9WTK2).
T1 sequence: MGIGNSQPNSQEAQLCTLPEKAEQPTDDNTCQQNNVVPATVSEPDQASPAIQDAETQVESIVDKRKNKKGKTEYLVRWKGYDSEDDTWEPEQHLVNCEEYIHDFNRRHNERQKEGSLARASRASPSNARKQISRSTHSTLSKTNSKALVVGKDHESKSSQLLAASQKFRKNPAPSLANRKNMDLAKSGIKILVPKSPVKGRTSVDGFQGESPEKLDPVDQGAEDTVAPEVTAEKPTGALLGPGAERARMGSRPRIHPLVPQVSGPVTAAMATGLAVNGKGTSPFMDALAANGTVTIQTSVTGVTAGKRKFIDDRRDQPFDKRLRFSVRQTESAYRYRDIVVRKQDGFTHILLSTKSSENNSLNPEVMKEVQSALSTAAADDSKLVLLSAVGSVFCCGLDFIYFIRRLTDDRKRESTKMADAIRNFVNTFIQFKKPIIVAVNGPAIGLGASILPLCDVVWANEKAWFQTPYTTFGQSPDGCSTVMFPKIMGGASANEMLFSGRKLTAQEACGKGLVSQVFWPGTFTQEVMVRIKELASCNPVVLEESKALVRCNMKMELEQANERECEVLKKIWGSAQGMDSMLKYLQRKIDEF

Assay [2] has as its target EWSR1, endogenous in mouse testis (mouse (endogenous in testis)) (UniProt Q61545).
Assay [3] addresses T2, SYCP1, SC central element protein, endogenous in mouse testis (mouse (endogenous in testis)) (UniProt Q62209).
T2 sequence: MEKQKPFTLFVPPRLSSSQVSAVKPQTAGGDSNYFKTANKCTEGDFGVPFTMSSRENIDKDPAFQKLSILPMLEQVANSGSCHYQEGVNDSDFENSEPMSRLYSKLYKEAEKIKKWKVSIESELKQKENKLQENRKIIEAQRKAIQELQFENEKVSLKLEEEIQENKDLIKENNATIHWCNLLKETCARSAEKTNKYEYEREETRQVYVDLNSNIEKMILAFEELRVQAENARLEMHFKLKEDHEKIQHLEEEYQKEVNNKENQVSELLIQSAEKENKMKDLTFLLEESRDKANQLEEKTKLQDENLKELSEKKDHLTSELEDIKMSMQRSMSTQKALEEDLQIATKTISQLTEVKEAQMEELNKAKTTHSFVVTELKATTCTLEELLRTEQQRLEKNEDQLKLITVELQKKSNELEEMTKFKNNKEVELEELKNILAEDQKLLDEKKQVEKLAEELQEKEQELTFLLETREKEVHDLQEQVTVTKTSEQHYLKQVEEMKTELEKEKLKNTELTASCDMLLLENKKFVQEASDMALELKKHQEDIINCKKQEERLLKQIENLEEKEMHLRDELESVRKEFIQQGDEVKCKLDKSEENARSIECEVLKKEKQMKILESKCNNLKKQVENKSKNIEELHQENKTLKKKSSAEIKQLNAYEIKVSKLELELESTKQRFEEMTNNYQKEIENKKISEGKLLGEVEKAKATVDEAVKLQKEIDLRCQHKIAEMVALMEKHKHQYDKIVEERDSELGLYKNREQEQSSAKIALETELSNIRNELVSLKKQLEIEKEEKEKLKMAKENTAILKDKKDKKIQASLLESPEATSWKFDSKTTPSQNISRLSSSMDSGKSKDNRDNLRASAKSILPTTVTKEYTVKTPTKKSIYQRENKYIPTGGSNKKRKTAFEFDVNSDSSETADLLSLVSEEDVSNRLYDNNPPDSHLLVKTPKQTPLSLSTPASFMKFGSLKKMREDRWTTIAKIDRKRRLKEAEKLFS

For assay [4], the target named is T3, SYCP3, chromosomal axis/SC lateral element protein, endogenous in mouse testis (mouse (endogenous in testis)) (UniProt P70281).
T3 sequence: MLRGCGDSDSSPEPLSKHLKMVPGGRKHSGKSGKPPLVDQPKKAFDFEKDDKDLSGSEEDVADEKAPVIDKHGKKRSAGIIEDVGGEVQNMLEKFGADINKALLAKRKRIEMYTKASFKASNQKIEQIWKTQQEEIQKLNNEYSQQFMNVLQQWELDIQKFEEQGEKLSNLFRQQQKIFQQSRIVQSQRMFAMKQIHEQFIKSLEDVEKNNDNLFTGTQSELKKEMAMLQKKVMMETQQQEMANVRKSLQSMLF

Assay [5] deals with T1, CDYL, endogenous in mouse testis (mouse (endogenous in testis)). This is another data set of the same source.
Assay [6] deals with EWSR1, endogenous in mouse testis (mouse (endogenous in testis)) (UniProt Q61545). The source holds these as a separate data set.
Assay [7] addresses T3, SYCP3, chromosomal axis/SC lateral element protein, endogenous in mouse testis (mouse (endogenous in testis)). This is another data set of the same source.
Assay [8] addresses T4, SYCP1, SC central element protein, endogenous in mouse testis (mouse (endogenous in testis)), Q62209.
T4 chain: T2 sequence
The following applies: remark: other sources report otherwise.

Assay [9] deals with T5, SYCP3, chromosomal axis/SC lateral element protein, endogenous in mouse testis (mouse (endogenous in testis)), P70281.
T5 chain: T3 sequence
The following applies: remark: other sources report otherwise.

Where two headings read alike, the source gives them in different places. These are yes or no findings as the source states them, for the method shown. Binding seen in cells or lysates may run through a third protein. Some entries that bind do so weakly or less than the wild type.

Take “EHMT2, endogenous in mouse testis (from UniProt Q9Z148 1-1263)”: the binding entry in [1] was “binds”; in assay [2] it was “no binding”; in assay [3] it was “binds weakly”.
Regarding “PRDM9, endogenous in mouse spermatocytes (from UniProt Q96EQ9 1-843)”, the binding result in assay [3] and in [4] was “binds” in each case.

B1: REC8, meiotic-specific cohesin, endogenous in mouse testis (phosphorylated form) (protein, UniProt Q8C5S7 1-591)
chain: MFYYPNVLQRHTGCFATIWLAATRGSRLVKREYLNVNVVKTCEEILNYVLVRVQPPVAGLPRPRFSLYLSAQLQIGVIRVYFQQCQYLVEDIQHILEHLHRAQLRIRIDMEEADLPSLLLPNCLAMMETLEDAPEPFFGKMSVDPRLPSPFDIPQIRHLLEAATPEKTRKETLPEATPDPRKPDRTLATVQSPEVITLQEAEPIRMLQIEGEQDLPEISRGDLELLIAEKDDAILLEERQRGRLLRQRRASLPLDESREEPRALEGAGLVSALSPPAPAQVEGIQEALPGQVFPPEVQKMTGWEPGALLTEVTPPQELRLPAPPSTEKRLPSLQRPLPRRHRRRQLLFWDKETQISREKFEEQLQTGAHCWEYPVAQPPKRMLTSPAELFRTPTLSGWLPPELLGLWTHCAQVPQRMLRQRPQLETEETVEEERAADEEERRKTEALSEIEVLREAQEPSGPLMLSSELSLEAAEDEKSRTSLIPPEWWAWSEEGQPEPPALPMLPELPEVPMEMPPRPELSSEAVLRAVALKLQANKELDFSSLVPPLSPRKLASRVFYLLLVLSTQKILLVEQQKPYGPLLIRPGPKFP
modifications: phosphorylated form, apparent mobility ~85 kDa (sites not given)
As to B1, the figures for the binding entry in assay [5], in [6] and in [7] were “no binding”, “binds” and “binds”, respectively.

B2: EWSR1, endogenous in mouse testis, Q61545 1-655 (protein)
chain: MASTDYSTYSQAAAQQGYSAYTAQPTQGYAQTTQAYGQQSYGTYGQPTDVSYTQAQTTATYGQTAYATSYGQPPTGYSTPTAPQAYSQPVQGYGTGTYDSTTATVTTTQASYAAQTAYGTQPAYPTYGQQPTATAPTRPQDGNKPAETSQPQSSTGGYNQPSLGYGQSNYSYPQVPGSYPMQPVTAPPSYPPTSYSSSQPTSYDQSSYSQQNTYGQPSSYGQQSSYGQQSSYGQQPPTSYPPQTGSYSQAPSQYSQQSSSYGQQSSFRQDHPSSMGVYGQESGGFSGPGENRSLSGPDNRGRGRGGFDRGGMSRGGRGGGRGGLGAGERGGFNKPGGPMDEGPDLDLGLPIDPDEDSDNSAIYVQGLNDNVTLDDLADFFKQCGVVKMNKRTGQPMIHIYLDKETGKPKGDATVSYEDPPTAKAAVEWFDGKDFQGSKLKVSLARKKPPMNSMRGGMPPREGRGMPPPLRGGPGGPGGPGGPMGRMGGRGGDRGGFPPRGPRGSRGNPSGGGNVQHRAGDWQCPNPGCGNQNFAWRTECNQCKAPKPEGFLPPPFPPPGGDRGRGGPGGMRGGRGGLMDRGGPGGMFRGGRGGDRGGFRGGRGMDRGGFGGGRRGGPGGPPGPLMEQMGGRRGGRGGPGKMDKGEHRQERRDRPY
With B2, the binding entry in assay [8] and in assay [9] was “binds” throughout.
